These results are taken from paper PMC3571920.

No constants are given. Whether binding was seen depends on the method and setting. In cells and extracts the contact can be indirect. Binding calls can cover weak binding; strength is not graded here.

This assay concerns the target HIV-1 integrase tagged at the C-terminus with the HA epitope (IN-HA) (HIV-1 (Lai molecular clone)). Kind of assay: co-IP; 3 mg whole cell extract of infected SupT1 cells (2 h and 6 h p.i.) on anti-HA affinity matrix (clone 3F10), 3 h at 4°C; washed with PBS-0.1% tween 20; Western blot of LEDGF/p75, TNPO3 and HA. Background: A western blot detects proteins with antibodies after separation by electrophoresis.

B1: TNPO3 (protein, UniProt Q9Y5L0 1-923)
chain: MEGAKPTLQLVYQAVQALYHDPDPSGKERASFWLGELQRSVHAWEISDQLLQIRQDVESCYFAAQTMKMKIQTSFYELPTDSHASLRDSLLTHIQNLKDLSPVIVTQLALAIADLALQMPSWKGCVQTLVEKYSNDVTSLPFLLEILTVLPEEVHSRSLRIGANRRTEIIEDLAFYSSTVVSLLMTCVEKAGTDEKMLMKVFRCLGSWFNLGVLDSNFMANNKLLALLFEVLQQDKTSSNLHEAASDCVCSALYAIENVETNLPLAMQLFQGVLTLETAYHMAVAREDLDKVLNYCRIFTELCETFLEKIVCTPGQGLGDLRTLELLLICAGHPQYEVVEISFNFWYRLGEHLYKTNDEVIHGIFKAYIQRLLHALARHCQLEPDHEGVPEETDDFGEFRMRVSDLVKDLIFLIGSMECFAQLYSTLKEGNPPWEVTEAVLFIMAAIAKSVDPENNPTLVEVLEGVVRLPETVHTAVRYTSIELVGEMSEVVDRNPQFLDPVLGYLMKGLCEKPLASAAAKAIHNICSVCRDHMAQHFNGLLEIARSLDSFLLSPEAAVGLLKGTALVLARLPLDKITECLSELCSVQVMALKKLLSQEPSNGISSDPTVFLDRLAVIFRHTNPIVENGQTHPCQKVIQEIWPVLSETLNKHRADNRIVERCCRCLRFAVRCVGKGSAALLQPLVTQMVNVYHVHQHSCFLYLGSILVDEYGMEEGCRQGLLDMLQALCIPTFQLLEQQNGLQNHPDTVDDLFRLATRFIQRSPVTLLRSQVVIPILQWAIASTTLDHRDANCSVMRFLRDLIHTGVANDHEEDFELRKELIGQVMNQLGQQLVSQLLHTCCFCLPPYTLPDVAEVLWEIMQVDRPTFCRWLENSLKGLPKETTVGAVTVTHKQLTDFHKQVTSAEECKQVCWALRDFTRLFR
On to B1, for which the binding result is listed as “binds”.
